Results deposited as PubChem BioAssay AID1159584 (Peter MacCallum Cancer Centre, 2016).
Purpose: 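Knock-downs that harm CDH1-null cells more than parental MCF10A cells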 (primary screen). Cell system: human MCF10A breast epithelial cells, parental and CDH1-null. Knock-down reagent: siRNA against human genes. Measurement: 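ATP luminescence (CellTiter-Glo) viability per line relative to mean mock wells over all plates, and the ratio of CDH1-null to parental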. Reading the numbers: CDH1-null / parental viability ratio: higher = CDH1-null cells survive relatively better than parental.
Here is one part, drawn at random, of about 18,000 reagents. Further read-outs or replicates are left out here. Not given: the amount of reagent, the time to read-out.

How did the screen score ATP2B3 (GeneID 492)?
CDH1-null / parental viability ratio: 0.87

How did the screen score MAP3K12 (GeneID 7786)?
CDH1-null / parental viability ratio: 0.79

What did the screen give for EXOC8 (GeneID 149371)?
CDH1-null / parental viability ratio: 0.82

What is on record for ZNRF2 (GeneID 223082)?
CDH1-null / parental viability ratio: 1

What did the screen give for CD86 (GeneID 942)?
CDH1-null / parental viability ratio: 0.98

Which result is listed for UCP2 (GeneID 7351)?
CDH1-null / parental viability ratio: 1.14

Which result is listed for RPA2 (GeneID 6118)?
CDH1-null / parental viability ratio: 1.26

For DMRTC2 (GeneID 63946), what was measured?
CDH1-null / parental viability ratio: 0.8

What is on record for PDLIM7 (GeneID 9260)?
CDH1-null / parental viability ratio: 0.98

What is on record for PDE9A (GeneID 5152)?
CDH1-null / parental viability ratio: 1.58

How did the screen score VSIG8 (GeneID 391123)?
CDH1-null / parental viability ratio: 0.85

With GSTM1 (GeneID 2944), what does the deposit list?
CDH1-null / parental viability ratio: 0.85

With MTFR2 (GeneID 113115), how do the results read?
CDH1-null / parental viability ratio: 1.38

For ATP6V1D (GeneID 51382), what does the deposit list?
CDH1-null / parental viability ratio: 1

Which result is listed for ZSCAN20 (GeneID 7579)?
CDH1-null / parental viability ratio: 0.84

How did the screen score RXFP1 (GeneID 59350)?
CDH1-null / parental viability ratio: 0.86

What did the screen give for NDUFS6 (GeneID 4726)?
CDH1-null / parental viability ratio: 1.05

With NUP155 (GeneID 9631), what was measured?
CDH1-null / parental viability ratio: 1.09

For DHCR24 (GeneID 1718), what does the deposit list?
CDH1-null / parental viability ratio: 0.82

Which result is listed for TACC2 (GeneID 10579)?
CDH1-null / parental viability ratio: 0.72

What is on record for CLEC9A (GeneID 283420)?
CDH1-null / parental viability ratio: 0.81

For PTK6 (GeneID 5753), what was measured?
CDH1-null / parental viability ratio: 0.92

For RBM4B (GeneID 83759), what was measured?
CDH1-null / parental viability ratio: 1.21

With OR10P1 (GeneID 121130), what does the deposit list?
CDH1-null / parental viability ratio: 1.47

What did the screen give for CSTF2T (GeneID 23283)?
CDH1-null / parental viability ratio: 2.16

How did the screen score SEMA4G (GeneID 57715)?
CDH1-null / parental viability ratio: 1.22

What did the screen give for PTPRG (GeneID 5793)?
CDH1-null / parental viability ratio: 1.4

For ATP6V0A1 (GeneID 535), how do the results read?
CDH1-null / parental viability ratio: 0.98

With TEDDM1 (GeneID 127670), how do the results read?
CDH1-null / parental viability ratio: 1.1

For DEFB106A (GeneID 245909), how do the results read?
CDH1-null / parental viability ratio: 0.95

For SLC22A25 (GeneID 387601), how do the results read?
CDH1-null / parental viability ratio: 0.7

How did the screen score CHCHD10 (GeneID 400916)?
CDH1-null / parental viability ratio: 1.02

How did the screen score ATXN2L (GeneID 11273)?
CDH1-null / parental viability ratio: 0.98

For SLIT3 (GeneID 6586), what was measured?
CDH1-null / parental viability ratio: 1.06

With GJB4 (GeneID 127534), what does the deposit list?
CDH1-null / parental viability ratio: 0.99

Which result is listed for B4GAT1 (GeneID 11041)?
CDH1-null / parental viability ratio: 0.97

For CFAP300 (GeneID 85016), how do the results read?
CDH1-null / parental viability ratio: 0.99

How did the screen score FSD1L (GeneID 83856)?
CDH1-null / parental viability ratio: 0.88

What is on record for YOD1 (GeneID 55432)?
CDH1-null / parental viability ratio: 1.04

For SLC35B1 (GeneID 10237), how do the results read?
CDH1-null / parental viability ratio: 1.13

How did the screen score C2CD4A (GeneID 145741)?
CDH1-null / parental viability ratio: 0.84

For GET3 (GeneID 439), what does the deposit list?
CDH1-null / parental viability ratio: 1.21

How did the screen score SPR (GeneID 6697)?
CDH1-null / parental viability ratio: 1.02

What did the screen give for AKT1S1 (GeneID 84335)?
CDH1-null / parental viability ratio: 1.1

What is on record for DIO1 (GeneID 1733)?
CDH1-null / parental viability ratio: 1.14

Entries listed so far whose gene name begins with S or s (5):
SEMA4G (GeneID 57715): CDH1-null / parental viability ratio = 1.22
SLC22A25 (GeneID 387601): CDH1-null / parental viability ratio = 0.7
SLIT3 (GeneID 6586): CDH1-null / parental viability ratio = 1.06
SLC35B1 (GeneID 10237): CDH1-null / parental viability ratio = 1.13
SPR (GeneID 6697): CDH1-null / parental viability ratio = 1.02
